{"source": "the supplement of paper PMC5949888", "note": "Most values lie at the floor of the assay. Slopes are relative: functional sequences can read slightly below zero."}
{"tested_on": "Saccharomyces cerevisiae PS128 hsf1 delta, HSF1(1-493) fusion", "test": "growth estimate (transactivation domain function in HSF1 fusion, heat-shock survival) (a.u. (slope of normalised read count over time)); higher = stronger growth at 37°C, i.e. more transactivation activity", "settings": "library: random library"}
{"substance": "RVALRPQLTPPVAGRN", "growth estimate": "< -0.25"}
{"substance": "RVAYRARDA", "growth estimate": "< -0.25"}
{"substance": "RVCGGNLGGSTVSGQGLSAS", "growth estimate": "< -0.25"}
{"substance": "RVCWKA", "growth estimate": "< -0.25"}
{"substance": "RVE", "growth estimate": "< -0.25"}
{"substance": "RVEGIVERSL", "growth estimate": "< -0.25"}
{"substance": "RVELRR", "growth estimate": "< -0.25"}
{"substance": "RVEPSPYSVRLSARRDNS", "growth estimate": "< -0.25"}
{"substance": "RVERFRLMSAKRRMCYFQSV", "growth estimate": "< -0.25"}
{"substance": "RVFAPPEKSHGCLPIGVYKL", "growth estimate": "< -0.25"}
{"substance": "RVFERPQQFCSARLTHLPAC", "growth estimate": "< -0.25"}
{"substance": "RVFRCVLAVVIVPSSC", "growth estimate": "< -0.25"}
{"substance": "RVFRYVP", "growth estimate": "< -0.25"}
{"substance": "RVFVLARESPVVARQDPEVG", "growth estimate": "< -0.25"}
{"substance": "RVGCR", "growth estimate": "< -0.25"}
{"substance": "RVGDYLFKSGSFSQAAHVDA", "growth estimate": "< -0.25"}
{"substance": "RVGFGRKSEAC", "growth estimate": "< -0.25"}
{"substance": "RVGGQPA", "growth estimate": "< -0.25"}
{"substance": "RVGIRHYPEHN", "growth estimate": "< -0.25"}
{"substance": "RVGKVPAELQFSINFSEALV", "growth estimate": "< -0.25"}
{"substance": "RVGLQSLPMVMGLLSAFQLS", "growth estimate": "< -0.25"}
{"substance": "RVGNVGDGATGGV", "growth estimate": "< -0.25"}
{"substance": "RVGPGEMCFAAGVI", "growth estimate": "< -0.25"}
{"substance": "RVGPSSYSWTPSSLRRHKRA", "growth estimate": "< -0.25"}
{"substance": "RVGQSWSPGLSPGIINWPGY", "growth estimate": "< -0.25"}
{"substance": "RVGRRVQ", "growth estimate": "< -0.25"}
{"substance": "RVGVREFMRGIGCGTSSRAP", "growth estimate": "< -0.25"}
{"substance": "RVHAIIARRGI", "growth estimate": "< -0.25"}
{"substance": "RVHEALTYKLVREHSLSCLW", "growth estimate": "< -0.25"}
{"substance": "RVHTIG", "growth estimate": "< -0.25"}
{"substance": "RVHVTDEARATDRD", "growth estimate": "< -0.25"}
{"substance": "RVHWVFRNFCRVGRLNGPLG", "growth estimate": "< -0.25"}
{"substance": "RVILAGTTCVRLQILH", "growth estimate": "< -0.25"}
{"substance": "RVIPTVALCA", "growth estimate": "< -0.25"}
{"substance": "RVKSWISFHNEIGVGPLAYF", "growth estimate": "< -0.25"}
{"substance": "RVKTDTVLNSL", "growth estimate": "< -0.25"}
{"substance": "RVKWSGARLKYADADMCAVR", "growth estimate": "< -0.25"}
{"substance": "RVLCDVSSISGISLILVFFL", "growth estimate": "< -0.25"}
{"substance": "RVLESC", "growth estimate": "< -0.25"}
{"substance": "RVLG", "growth estimate": "< -0.25"}
{"substance": "RVLGRVITCSDSIGSHPGAS", "growth estimate": "< -0.25"}
{"substance": "RVLGSTSK", "growth estimate": "< -0.25"}
{"substance": "RVLLLPRQLNVGYSVC", "growth estimate": "< -0.25"}
{"substance": "RVLSTR", "growth estimate": "< -0.25"}
{"substance": "RVLTFRLRAGLLKAYSVWCS", "growth estimate": "< -0.25"}
{"substance": "RVLTLGRSPARSPTVGGIKQ", "growth estimate": "< -0.25"}
{"substance": "RVLWGRAHHLVAGTKKL", "growth estimate": "< -0.25"}
{"substance": "RVMRVRRLSFGRRAMSVRQS", "growth estimate": "< -0.25"}
{"substance": "RVNGAKLQRRVL", "growth estimate": "< -0.25"}
{"substance": "RVNNGSARMAAFRVAWVNCV", "growth estimate": "< -0.25"}
{"substance": "RVPPKVTVAGGNTFPRLSRS", "growth estimate": "< -0.25"}
{"substance": "RVPQVPFEDGLRGLR", "growth estimate": "< -0.25"}
{"substance": "RVQGPGAVSNVWHAG", "growth estimate": "< -0.25"}
{"substance": "RVQIQRVDALVIVCWLRWGG", "growth estimate": "< -0.25"}
{"substance": "RVQPVGPKSSPCILAPGWVC", "growth estimate": "< -0.25"}
{"substance": "RVQVISRELVNRQAILPAVH", "growth estimate": "< -0.25"}
{"substance": "RVRE", "growth estimate": "< -0.25"}
{"substance": "RVREAFAHSDLVRRDKVTTS", "growth estimate": "< -0.25"}
{"substance": "RVRKQLRA", "growth estimate": "< -0.25"}
{"substance": "RVRKQVVVSRRQCIGPLVTD", "growth estimate": "< -0.25"}
{"substance": "RVRKRVRCMGRGCAYLRFAS", "growth estimate": "< -0.25"}
{"substance": "RVRMARSELGRKIL", "growth estimate": "< -0.25"}
{"substance": "RVRRTSTNEPDRLDSDVRQC", "growth estimate": "< -0.25"}
{"substance": "RVRSKWNLDLIHFGNRTPRA", "growth estimate": "< -0.25"}
{"substance": "RVRSRV", "growth estimate": "< -0.25"}
{"substance": "RVRT", "growth estimate": "< -0.25"}
{"substance": "RVRVANRGSCVYYNCIHQDT", "growth estimate": "< -0.25"}
{"substance": "RVRVQPFGFMIFRMSFAGND", "growth estimate": "< -0.25"}
{"substance": "RVSAASQVAPR", "growth estimate": "< -0.25"}
{"substance": "RVSGK", "growth estimate": "< -0.25"}
{"substance": "RVSGLSLGFLLYLFITRRAG", "growth estimate": "< -0.25"}
{"substance": "RVSIFIGPAGRGAIFANRQA", "growth estimate": "< -0.25"}
{"substance": "RVSLGYTETHPSRAYLAKNH", "growth estimate": "< -0.25"}
{"substance": "RVSPLGKVARSLCTRSARVG", "growth estimate": "< -0.25"}
{"substance": "RVSQDY", "growth estimate": 1.45}
{"substance": "RVSWDCSVCATSLYVRVLVP", "growth estimate": "< -0.25"}
{"substance": "RVSYGGSLKWKLSVC", "growth estimate": "< -0.25"}
{"substance": "RVTARTLCLR", "growth estimate": "< -0.25"}
{"substance": "RVTESRAGH", "growth estimate": "< -0.25"}
{"substance": "RVTG", "growth estimate": "< -0.25"}
{"substance": "RVTGIRSLPSTPLGSE", "growth estimate": "< -0.25"}
{"substance": "RVTRW", "growth estimate": "< -0.25"}
{"substance": "RVTRYHFYGARDSSFPINWR", "growth estimate": "< -0.25"}
{"substance": "RVVCQESPT", "growth estimate": "< -0.25"}
{"substance": "RVVEGRSRSHLSLPTFSYHP", "growth estimate": "< -0.25"}
{"substance": "RVVEYAHRRYLQQSSPMDIS", "growth estimate": "< -0.25"}
{"substance": "RVVISCKCIIVMFRGRLLSC", "growth estimate": "< -0.25"}
{"substance": "RVVSRIGLISSRDRLFLGWE", "growth estimate": "< -0.25"}
{"substance": "RVWDPYRDACFP", "growth estimate": -0.227}
{"substance": "RVWGHSRSWCVETAG", "growth estimate": "< -0.25"}
{"substance": "RVWGVPWCGTEHCARRSSLT", "growth estimate": "< -0.25"}
{"substance": "RVYRNKASECFPSTTEVRQL", "growth estimate": "< -0.25"}
{"substance": "RWATAESRLVL", "growth estimate": "< -0.25"}
{"substance": "RWAYFSSVLTWAQKSGCIVS", "growth estimate": "< -0.25"}
{"substance": "RWCLTAIDGSFALTHPYFPA", "growth estimate": "< -0.25"}
{"substance": "RWDHALFHQLTRCPI", "growth estimate": "< -0.25"}
{"substance": "RWEAPSGPISDIMPGRQACS", "growth estimate": "< -0.25"}
{"substance": "RWFLLGDERIKDWVSPPYPR", "growth estimate": "< -0.25"}
{"substance": "RWFVVTFS", "growth estimate": "< -0.25"}
